Reference: PubChem BioAssay AID2551 (National Center for Advancing Translational Sciences (NCATS), 2010)
Screen size: about 310,000 compounds; about 17,000 (5.5%) were called active. Inconclusive means that the source gave no clear call. Such entries were picked first, then a sample of the others. Calls come from the whole dose curve; as a rule, active = well fitted inhibition curve with a large enough effect; inconclusive = small, poorly fitted or top-dose-only effect, or effect the other way; inactive = no such curve, though single readings can be large or run the other way. Where the call is inconclusive, the potency comes from a doubtful curve fit.

By UniProt entry, the sequences of proteins in these tests, tags left out. Where a name states a change or a piece, a line headed by the entry shows the natural chain unless it says otherwise.
UniProt P51450: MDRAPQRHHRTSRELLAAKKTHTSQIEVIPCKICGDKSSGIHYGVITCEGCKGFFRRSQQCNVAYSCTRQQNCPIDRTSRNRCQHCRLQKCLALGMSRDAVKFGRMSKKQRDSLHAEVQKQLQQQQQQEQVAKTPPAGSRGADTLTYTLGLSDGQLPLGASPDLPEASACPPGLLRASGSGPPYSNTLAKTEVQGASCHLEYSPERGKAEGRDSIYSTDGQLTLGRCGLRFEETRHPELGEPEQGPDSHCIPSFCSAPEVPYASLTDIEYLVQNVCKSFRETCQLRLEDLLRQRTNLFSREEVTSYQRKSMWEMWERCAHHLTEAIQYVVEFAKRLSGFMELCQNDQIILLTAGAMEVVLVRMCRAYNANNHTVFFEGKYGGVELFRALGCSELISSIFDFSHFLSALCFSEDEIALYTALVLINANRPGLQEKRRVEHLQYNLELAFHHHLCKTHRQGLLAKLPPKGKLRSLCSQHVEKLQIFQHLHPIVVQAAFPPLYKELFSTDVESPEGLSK

Biological target: Nuclear receptor ROR-gamma (Mus musculus) (UniProt P51450)
Test: qHTS for inhibitors of ROR gamma transcriptional activity; note: nearly all actives have a fitted effect of over 60% in size
Conditions: Drosophila S2 Gal4-RORgamma UAS-luciferase reporter, 20 h; activity change, negative = inhibition: at 53.6 µM (top of the series)
Procedure, shortened: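 A Gal4/UAS one-hybrid system in insect cells: metallothionein-promoter Gal4–ROR gamma fusion plus Photinus luciferase reporter. Copper sulfate 700 uM final, 20 hr ambient incubation, luminescent detection after 10 min with reagent.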
% is set by controls: 0 for no effect and ±100 for the full control effect; potency is the fitted concentration of half-maximal effect.

| SMILES | Potency | activity change, negative = inhibition |
| --- | --- | --- |
| CCOc1ccccc1NC(=O)c1cc(C(=O)c2cc(OC)ccc2O)coc1=N | inconclusive: 12.6 µM [activator, partial curve] |  |
| CCOc1ccc(N=Nc2ccc(N)cc2N)cc1 | active: 8.91 µM |  |
| O=C(Nc1ccccc1N1CCOCC1)c1cc(-c2ccco2)nc2ccccc12 |  | inactive: 17.5% |
| Nc1nc(CSc2nc3ccccc3[nH]2)cs1 | inconclusive: 35.5 µM [inhibitor, single point] |  |
| Cc1ccc(S(=O)(=O)c2ccccc2)cc1S(=O)(=O)N1CCOCC1 | inconclusive: 35.5 µM [activator, single point] |  |
| CNc1ncc(C(=O)c2ccc(Br)cc2)s1 |  | inactive: -4.58% |
| CNC(=O)c1[nH]cnc1C(=O)Nc1ccc(OC)cc1 | active: 5.62 µM |  |
| COC(=O)c1cc(S(=O)(=O)N2CCN(c3ccc(F)cc3)CC2)cn1C | inconclusive: 12.6 µM [activator, single point] |  |
| CC(C)C(=O)NC(=S)Nc1ccc(S(=O)(=O)N(C)C)cc1 | inconclusive: 20 µM [inhibitor, single point] |  |
| CCOc1cccc(-c2nn(-c3ccccc3)cc2/C=C(/C#N)C(=O)NCCCn2ccnc2)c1 | inconclusive: 35.5 µM [inhibitor, single point] |  |
| CCOC(=O)c1c(NC(=O)CC)sc(C(C)=O)c1C | inconclusive: 22.4 µM [inhibitor, single point] |  |
| COC(=O)c1ccc(C(=O)OCCCc2nc3ccc(N)cc3[nH]2)cc1 |  | inactive: 2.59% |
| CCCCN1C(=O)C(O)(CC(=O)c2ccccc2OC)c2ccccc21 (stereo not given) |  | inactive: 1.63% |
| COCc1cc(C)nc(OCC(=O)N/N=C/c2cc(C)n(-c3c(C)cccc3C)c2C)c1C#N | inconclusive: 35.5 µM [inhibitor, single point] |  |
| C=CCNC(=S)NNc1nc2c(c(=O)[nH]1)C1(CCCC1)Cc1ccccc1-2 | active: 2.82 µM |  |
| COC(=O)[C@@]1(Cc2ccc(F)cc2)[C@H]2c3cc(C(=O)N(C)C)n(Cc4ccccn4)c3C[C@H]2CN1C(=O)c1ccccc1 | inconclusive: 15.8 µM [activator, single point] |  |
| COc1ccc(C(=NNc2ccccc2C(=O)O)c2ccc(OC)cc2)cc1 | inconclusive: 14.1 µM [activator, single point] |  |
| COc1ccc(CCNC(=O)c2cc(C(C)C)on2)cc1OC | inconclusive: 15.8 µM [activator, single point] |  |
| CN1CC2(C)OC(=O)C(Cl)=C2CC1c1ccccc1 (stereo not given) |  | inactive: 23.9% |
| CCOC(=O)N1CCC(NC(=O)c2cc(COc3ccc(F)cc3Cl)on2)CC1 | inconclusive: 5.62 µM [activator, single point] |  |

A different layout for some results above.
SMILES | Potency | activity change, negative = inhibition
CCOC(=O)c1c(NC(=O)CC)sc(C(C)=O)c1C | inconclusive: 22.4 µM [inhibitor, single point] | 
COC(=O)c1ccc(C(=O)OCCCc2nc3ccc(N)cc3[nH]2)cc1 |  | inactive: 2.59%
